These results are taken from patent publication US10849956B2, “Glycopeptide compositions” (priority 2014, dated 2020).

Assay [1] has as its system Enterococcus faecalis ATCC 29212. The experiment in a line: Antibacterial susceptibility testing, broth dilution method (CLSI). The settings on record: ATCC29212, read-out: Enterococcus faecalis MIC (μg/mL). It is filed as cell-based. The protocol: (§1) Testing was performed using broth dilution method according to Clinical and Laboratory Standards Institute (CLSI) guidelines M100-S23/S24; M07-A9, the disclosure of which is herein incorporated by reference.
(§2) The antibiotic activity of eight aqueous pharmaceutical compositions was determined and compared to the activity of the injectable reference finished product, Vancocin, manufactured by Flynn Pharma Ltd. Antibiotic activity was determined against quality control strains: Staphylococcus aureus ATCC 29213, Enterococcus faecalis ATCC 29212 and Streptococcus pnemoniae ATCC 49619.

The test system of assay [2] is Staphylococcus aureus ATCC 29213. Described as above. It is filed as cell-based. As to conditions: ATCC29213, read-out: Staphylococcus aureus MIC (μg/mL). The protocol: as §1, §2

Structures are written as SMILES. Values after ≈ are worked out from the molar mass of the structure shown.

As for `CN[C@H](CC(C)C)C(=O)N[C@H]1C(=O)N[C@@H](CC(N)=O)C(=O)N[C@H]2C(=O)N[C@H]3C(=O)N[C@H](C(=O)N[C@H](C(=O)O)c4cc(O)cc(O)c4-c4cc3ccc4O)[C@H](O)c3ccc(c(Cl)c3)Oc3cc2cc(c3O[C@@H]2O[C@H](CO)[C@@H](O)[C@H](O)[C@H]2O[C@H]2C[C@](C)(N)[C@H](O)[C@H](C)O2)Oc2ccc(cc2Cl)[C@H]1O` [Vancomycin USP standard, Vancomycin], the MIC in assay [1] was 2 µg/mL (≈ 1.38 µM); in assay [2], 1 µg/mL (≈ 0.69 µM).
